For some assays here: The name of at least one read-out is uncertain. Some of these results come from one statement about several compounds together.
Experiments:
WI-38 cells = conditions: for Screen 1: Screening, at 10 uM (viability assay by ATP measurement, normalized fold-change shown, >=2.5): 24 h, then 700 μM H2O2 3 h, normalized to DMSO; for Screen 2: Dose response, at 10 uM (viability assay by ATP measurement, normalized fold-change shown, >=1.5) / Screen 3: Dose response, at 20 uM (viability assay by ATP measurement, normalized fold-change shown): H2O2 stress; for Exp. 1, under H2O2 stress treatment, at 10 uM (fold change): Exp. 1, WI-38 cells; for Exp. 1, under H2O2 stress treatment, at 10 uM (fold change) / Exp. 2, under H2O2 stress treatment, at 10 uM (fold change): normalized ATP measurement (Table 12); for Exp. 2, under H2O2 stress treatment, at 10 uM (fold change): Exp. 2, WI-38 cells; for Experiment 1, WI-38 cells (under H2O2 stress treatment), at 10 uM (fold change) / Experiment 2, WI-38 cells (under H2O2 stress treatment), at 10 uM (fold change): 10 uM (run along with HDF cells); for Dose response retest, at 10 uM (fold change) / Dose response retest, at 20 uM (fold change) / Library Screening, at 10 uM (fold change): H2O2-resistance of WI-38 cells; for Dose response retest, at 10 uM (fold change) / Dose response retest, at 20 uM (fold change): cherry-picked retest; for H2O2 stress treatment (3 hrs), at 10 uM (fold change): WI-38 cells, H2O2 3 hrs, normalized ATP measurement
LC3A/B puncta = test: Autophagy induction analysis (LC3A/B puncta immuno-staining); type: cell-based, human; conditions: WI-38, 24 hrs
Experimental: Immuno-staining of LC3A/B was performed, following a standard protocol. Briefly, WI-38 cells were treated with small molecules for 24 hrs, and then processed and incubated with primary antibody (Cell Signaling, rabbit anti-LC3A/B, 1:100) overnight at 4° C. Next day, samples were processed and incubated with fluorophore-conjugated secondary antibody and further incubated with DAPI dye. Images were collected on the INCell Analyzer 2000 (Experiment 1: 10× objective; Experiment 2: 20× objective) and analyzed with the Developer Toolbox. For Experiment 2, lysosomal-associated membrane protein 2 (LAMP2) was also counter-stained to identify the LC3A/B puncta that colocalize with lysosome and the data were analyzed by the MetaXpress software (Molecular Devices, version 5.1). The intensity of total (Exp. 1) or LAMP2-colocalized LC3A/B puncta (Exp. 2) was normalized the total numbers nuclei in the fields.
These assays were performed, following the same procedures to analyze DNA-damage markers. WI-38 cells were incubated with small molecules for 24 hrs, and then processed and incubated with primary antibody (rabbit anti-LC3A/B, 1:100) overnight at 4 C. The next day, samples were processed and incubated with fluorophore-conjugated secondary antibody and further incubated with DAPI dye. Images were collected on an INCell Analyzer 2000 and analyzed with the Developer software. […]

FOXO3 = test: qPCR analysis of FOXO3-regulated genes; type: cell-based, human; conditions: WI-38
Experimental: For qPCR analysis, WI-38 cells were treated with small molecules (at 10 μM) (biological quadruplicates) for 24 hrs and processed for RNA isolation and reverse transcription (RT) with the Cells-to-Ct Kit (Life Technologies), following manufacturer's instructions. RT products were diluted with H2O and used for qPCR analysis on an ABI 7300 system (Life Technologies) (technical triplicates). Relative expression levels of target genes were normalized to the genes B2M, PPIA and GAPDH. To knock down the expression of FOXO3 or NRF2, WI-38 cells were transfected, using the RNAiMAX reagents (Life Technologies), with siRNA oligos (at 10 nM final concentration, 10 ml culture medium) for FOXO3 (Life Technologies) or NRF2 (Integrated DNA Technologies) on 10-cm petri dishes for 36 hrs, and then detached and aliquoted onto 96-well (for qPCR analysis) or 384-well plates (for H2O2-stress treatment). ˜24 hrs later, small molecules were introduced and incubated with cells for 24 hrs. Cells were then either processed with the Cells-to-Ct Kit to prepare RT products for qPCR analysis or subjected to H2O2 (700 μM) for 3 hrs and assayed for viability. The knockdown efficiency of FOXO3 or NRF2 was checked at 36 hrs post-transfection and at the end as well. […]

SMILES: COc1ccc(C(=O)/C=C/c2ccc(F)cc2)c(OC)c1 [Gr-4A]
- Screen 1: Screening, at 10 uM (viability assay by ATP measurement, normalized fold-change shown, >=2.5) (WI-38 cells): 2.71 fold-change
- Screen 2: Dose response, at 10 uM (viability assay by ATP measurement, normalized fold-change shown, >=1.5) (WI-38 cells): 1.98 fold-change
- Screen 3: Dose response, at 20 uM (viability assay by ATP measurement, normalized fold-change shown) (WI-38 cells): 2.48 fold-change
- Exp. 1, under H2O2 stress treatment, at 10 uM (fold change) (WI-38 cells): 2.86 fold change
- Exp. 2, under H2O2 stress treatment, at 10 uM (fold change) (WI-38 cells): 2.08 fold change
- Experiment 1, WI-38 cells (under H2O2 stress treatment), at 10 uM (fold change) (WI-38 cells): 2.48 fold change
- Experiment 2, WI-38 cells (under H2O2 stress treatment), at 10 uM (fold change) (WI-38 cells): 30.86 fold change
- Dose response retest, at 10 uM (fold change) (WI-38 cells): 1.98 fold change
- Dose response retest, at 20 uM (fold change) (WI-38 cells): 2.48 fold change
- Library Screening, at 10 uM (fold change) (WI-38 cells): 2.71 fold change
- H2O2 stress treatment (3 hrs), at 10 uM (fold change) (WI-38 cells): 3.00 fold change

SMILES: COc1ccc(C(=O)/C=C/c2ccccc2Br)c(OC)c1 [Gr-4B]
- Screen 1: Screening, at 10 uM (viability assay by ATP measurement, normalized fold-change shown, >=2.5) (WI-38 cells): 2.94 fold-change
- Screen 2: Dose response, at 10 uM (viability assay by ATP measurement, normalized fold-change shown, >=1.5) (WI-38 cells): 1.93 fold-change
- Screen 3: Dose response, at 20 uM (viability assay by ATP measurement, normalized fold-change shown) (WI-38 cells): 2.10 fold-change
- Exp. 1, under H2O2 stress treatment, at 10 uM (fold change) (WI-38 cells): 2.52 fold change
- Exp. 2, under H2O2 stress treatment, at 10 uM (fold change) (WI-38 cells): 2.15 fold change
- Experiment 1, WI-38 cells (under H2O2 stress treatment), at 10 uM (fold change) (WI-38 cells): 1.89 fold change
- Experiment 2, WI-38 cells (under H2O2 stress treatment), at 10 uM (fold change) (WI-38 cells): 9.20 fold change
- Dose response retest, at 10 uM (fold change) (WI-38 cells): 1.93 fold change
- Dose response retest, at 20 uM (fold change) (WI-38 cells): 2.10 fold change
- Library Screening, at 10 uM (fold change) (WI-38 cells): 2.94 fold change
- H2O2 stress treatment (3 hrs), at 10 uM (fold change) (WI-38 cells): 2.83 fold change

SMILES: COc1ccc(C(=O)/C=C/c2cccc(Cl)c2)c(OC)c1 [Gr-4C]
- Screen 1: Screening, at 10 uM (viability assay by ATP measurement, normalized fold-change shown, >=2.5) (WI-38 cells): 6.06 fold-change
- Screen 2: Dose response, at 10 uM (viability assay by ATP measurement, normalized fold-change shown, >=1.5) (WI-38 cells): 2.33 fold-change
- Screen 3: Dose response, at 20 uM (viability assay by ATP measurement, normalized fold-change shown) (WI-38 cells): 2.90 fold-change
- Exp. 1, under H2O2 stress treatment, at 10 uM (fold change) (WI-38 cells): 2.96 fold change
- Exp. 2, under H2O2 stress treatment, at 10 uM (fold change) (WI-38 cells): 2.10 fold change
- Experiment 1, WI-38 cells (under H2O2 stress treatment), at 10 uM (fold change) (WI-38 cells): 1.99 fold change
- Experiment 2, WI-38 cells (under H2O2 stress treatment), at 10 uM (fold change) (WI-38 cells): 19.28 fold change
- Dose response retest, at 10 uM (fold change) (WI-38 cells): 2.33 fold change
- Dose response retest, at 20 uM (fold change) (WI-38 cells): 2.90 fold change
- Library Screening, at 10 uM (fold change) (WI-38 cells): 6.06 fold change
- H2O2 stress treatment (3 hrs), at 10 uM (fold change) (WI-38 cells): 6.93 fold change

SMILES: COc1cc2c(no[n+]2[O-])n2nnnc12 [O11]
- LC3A/B puncta induction (LC3A/B puncta): ≥ 2 fold
- SESN1 expression (FOXO3): more than 1.5 fold

Source: patent US11413278B2, “Compounds and methods for promoting stress resistance” (priority 2015, dated 2022)
